Results as given in patent EP0206730 (dated 1986).

Tests used:
[1] = general procedure: Boc solid-phase peptide synthesis; BHA; DCC/HBT; DMAP for Pmp(4-MeBzl); conditions: whole synthesis, one disulfide bridge, sequence written open
[2] = general procedure: Boc solid-phase peptide synthesis; benzhydrylamine resin (BHA); Boc-Arg(Tos)-O-Bzl-Resin for C-terminal acids; DCC/HBT; DMAP for Pmp(4-MeBzl); conditions: whole synthesis, scale of the general procedure 1.0 mmol
[3] = general procedure: Boc solid-phase peptide synthesis; Boc-Cys(4-MeBzl)-chloromethylphenyl resin; DCC/HBT; DMAP for Pmp(4-MeBzl); conditions: whole synthesis, scale 0.5 mmol
[4] = general procedure: Boc solid-phase peptide synthesis; Boc-Arg(Tos)-OCH2C6H4-Resin; DCC/HBT; DMAP for Pmp(4-MeBzl); conditions: whole synthesis, scale 1.0 mmol
[5] = general procedure: Boc solid-phase peptide synthesis; Boc-Arg(Tos)-O-Bzl-Resin; DCC/HBT; DMAP for Pmp(4-MeBzl); conditions: whole synthesis, scale 1.0 mmol, one disulfide bridge, sequence written open
[6] = one disulfide bridge, sequence written open

Substance	crude mass ([1]; scale 1.0 mmol) [mg]	final purity (method not given) [2, 6]	other results
Pmp-D-Tyr (Et) -Phe-Val-Asn-Cvs-Arg-D-Arg (NH2)	252.46	98%	
Pmp-D-Tyr (Et) -Phe-Val-Asn-Cys-Arg-Arg (NH2)	284.19	96%	
Pmp-D-Tyr (Et) -Phe-Val-Asn-Cys-D-Arg-Arg (NH2)	371.09	96-97%	crude yield [2, 6]: 35.2%
Pmp-D-Tyr (Et) -Phe-Val-Asn-Cys-Lys-Arg (NH2)	710.17	98-99%	
Pmp-D-Tyr(Et)-Phe-Val-Asn-Cys(OH)			isolated mass [3]: 80 mg
Pmp-D-Tyr(Et)-Phe-Val-Asn-Cys-Arg(OH)			isolated mass [4]: 245 mg; final purity (method not given) [2]: about 90% pure; isolated yield [2]: 25%
Pmp-D-Tyr(Et)-Phe-Val-Asn-Cys-Arg-Lys(NH2)	702.5	96-97%	
Pmp-D-Tyr(Et)-Phe-Val-Asn-Cys-MeArgArgNH2		97-98%	crude mass ([1]; scale 0.5 mmol): 375 mg
Pmp-D-Tyr-(Et)-Phe-Val-Asn-Cys-Arg-Arg(OH)		96.5%	isolated mass [5]: 549.62 mg; isolated yield [2, 6]: 46.7%
